Measured data: PubChem BioAssay AID1053208 (Peter MacCallum Cancer Centre, 2014)
The whole screen tested about 17,000 reagents; below is a part drawn at random. Over the whole deposit, 788 (4.7%) were called active. 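Calls rest on z-score classes alone; an extra cut-off of viability at most 70% of control was not applied to them.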 Not all columns of the deposit are shown.

Test: 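Synthetic lethal interactions between gene loss and doxorubicin in osteosarcoma cells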 (primary screen)
Cells: mouse osteosarcoma cells, early-passage culture from an engineered mouse model of fibroblastic bone tumour
Reagent: siRNA pool against mouse genes, 40 nM
Timing: about 120 h (48 h before drug, then 72 h with drug)
Conditions: doxorubicin 100 nM for 72 h, roughly 30-40% inhibitory dose
Measured: 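Luminescent ATP signal taken as viability with or without 100 nM doxorubicin for 72 h; mean of two wells set against non-targeting siRNA and turned into robust z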
Scale: viability z-score with doxorubicin: higher = more viable cells under doxorubicin; viability z-score without drug: higher = more viable cells with knock-down alone
Rule for the call: 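Called active if knock-down leaves viability unchanged without drug (z within -2 to 2) but lowers it with doxorubicin (z at or under -2)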

For Ly75, how do the results read?
combined z-score class: no change with or without drug; viability z-score with doxorubicin: 0.34; viability z-score without drug: -1.52; outcome: inactive

How did the screen score Rxfp2?
combined z-score class: no change with or without drug; viability z-score with doxorubicin: -1.12; viability z-score without drug: -1.18; outcome: inactive

With Eif1a, what does the deposit list?
combined z-score class: no change with or without drug; viability z-score with doxorubicin: -1.12; viability z-score without drug: -0.17; outcome: inactive

For Prkaa1, what does the deposit list?
combined z-score class: no change with or without drug; viability z-score with doxorubicin: -0.11; viability z-score without drug: 0.17; outcome: inactive

With A830019P07Rik, how do the results read?
combined z-score class: no change with or without drug; viability z-score with doxorubicin: 0.11; viability z-score without drug: -0.84; outcome: inactive

For Rccd1, what was measured?
combined z-score class: low cell count with doxorubicin only; viability z-score with doxorubicin: -2.59; viability z-score without drug: -0.34; outcome: active

Which result is listed for 1700018B24Rik?
combined z-score class: no change with or without drug; viability z-score with doxorubicin: -0.22; viability z-score without drug: 1.18; outcome: inactive

With Hykk, how do the results read?
combined z-score class: no change with or without drug; viability z-score with doxorubicin: 0.22; viability z-score without drug: 0; outcome: inactive

With Lzic, what was measured?
combined z-score class: no change with or without drug; viability z-score with doxorubicin: 1.35; viability z-score without drug: 1.35; outcome: inactive

What is on record for Aplp1?
combined z-score class: no change with or without drug; viability z-score with doxorubicin: -0.22; viability z-score without drug: 0.51; outcome: inactive

Which result is listed for Rpl19?
combined z-score class: low cell count with and without drug; viability z-score with doxorubicin: -4.72; viability z-score without drug: -2.19; outcome: inactive

For Gpr150, how do the results read?
combined z-score class: no change with or without drug; viability z-score with doxorubicin: -0.34; viability z-score without drug: 0.34; outcome: inactive

What did the screen give for Clk2?
combined z-score class: no change with or without drug; viability z-score with doxorubicin: 0.45; viability z-score without drug: -0.17; outcome: inactive

What did the screen give for Rnft2?
combined z-score class: no change with or without drug; viability z-score with doxorubicin: -1.46; viability z-score without drug: -0.17; outcome: inactive

What did the screen give for Reps1?
combined z-score class: no change with or without drug; viability z-score with doxorubicin: -1.69; viability z-score without drug: -1.85; outcome: inactive

How did the screen score Emsy?
combined z-score class: no change with or without drug; viability z-score with doxorubicin: -0.45; viability z-score without drug: 0.67; outcome: inactive

With Clcn4, what was measured?
combined z-score class: low cell count with doxorubicin only; viability z-score with doxorubicin: -2.7; viability z-score without drug: -1.85; outcome: active

What did the screen give for Tmed11?
combined z-score class: no change with or without drug; viability z-score with doxorubicin: 0; viability z-score without drug: 1.35; outcome: inactive

What did the screen give for Pdk1?
combined z-score class: low cell count without drug only; viability z-score with doxorubicin: -1.57; viability z-score without drug: -2.19; outcome: inactive

3 entries from above, limited to “viability z-score with doxorubicin”:
Rpl19	-4.72
Gpr150	-0.34
Clk2	0.45
